Assay results reported in patent US20210238260A1.
These are yes or no findings as the source states them, for the method shown. Some entries that bind do so weakly or less than the wild type. Values belong to the substance of their own block, whether it stands above or below them.

Sequences of proteins named here, by UniProt entry; tags and fusion partners are left off. A change or cut given only in a name is not applied to a line headed by its entry. A line that says so, or that is headed by a name, gives the form on record, which may keep a tag or linker.
Factor VIIIa (FVIIIa) (P00451, form named): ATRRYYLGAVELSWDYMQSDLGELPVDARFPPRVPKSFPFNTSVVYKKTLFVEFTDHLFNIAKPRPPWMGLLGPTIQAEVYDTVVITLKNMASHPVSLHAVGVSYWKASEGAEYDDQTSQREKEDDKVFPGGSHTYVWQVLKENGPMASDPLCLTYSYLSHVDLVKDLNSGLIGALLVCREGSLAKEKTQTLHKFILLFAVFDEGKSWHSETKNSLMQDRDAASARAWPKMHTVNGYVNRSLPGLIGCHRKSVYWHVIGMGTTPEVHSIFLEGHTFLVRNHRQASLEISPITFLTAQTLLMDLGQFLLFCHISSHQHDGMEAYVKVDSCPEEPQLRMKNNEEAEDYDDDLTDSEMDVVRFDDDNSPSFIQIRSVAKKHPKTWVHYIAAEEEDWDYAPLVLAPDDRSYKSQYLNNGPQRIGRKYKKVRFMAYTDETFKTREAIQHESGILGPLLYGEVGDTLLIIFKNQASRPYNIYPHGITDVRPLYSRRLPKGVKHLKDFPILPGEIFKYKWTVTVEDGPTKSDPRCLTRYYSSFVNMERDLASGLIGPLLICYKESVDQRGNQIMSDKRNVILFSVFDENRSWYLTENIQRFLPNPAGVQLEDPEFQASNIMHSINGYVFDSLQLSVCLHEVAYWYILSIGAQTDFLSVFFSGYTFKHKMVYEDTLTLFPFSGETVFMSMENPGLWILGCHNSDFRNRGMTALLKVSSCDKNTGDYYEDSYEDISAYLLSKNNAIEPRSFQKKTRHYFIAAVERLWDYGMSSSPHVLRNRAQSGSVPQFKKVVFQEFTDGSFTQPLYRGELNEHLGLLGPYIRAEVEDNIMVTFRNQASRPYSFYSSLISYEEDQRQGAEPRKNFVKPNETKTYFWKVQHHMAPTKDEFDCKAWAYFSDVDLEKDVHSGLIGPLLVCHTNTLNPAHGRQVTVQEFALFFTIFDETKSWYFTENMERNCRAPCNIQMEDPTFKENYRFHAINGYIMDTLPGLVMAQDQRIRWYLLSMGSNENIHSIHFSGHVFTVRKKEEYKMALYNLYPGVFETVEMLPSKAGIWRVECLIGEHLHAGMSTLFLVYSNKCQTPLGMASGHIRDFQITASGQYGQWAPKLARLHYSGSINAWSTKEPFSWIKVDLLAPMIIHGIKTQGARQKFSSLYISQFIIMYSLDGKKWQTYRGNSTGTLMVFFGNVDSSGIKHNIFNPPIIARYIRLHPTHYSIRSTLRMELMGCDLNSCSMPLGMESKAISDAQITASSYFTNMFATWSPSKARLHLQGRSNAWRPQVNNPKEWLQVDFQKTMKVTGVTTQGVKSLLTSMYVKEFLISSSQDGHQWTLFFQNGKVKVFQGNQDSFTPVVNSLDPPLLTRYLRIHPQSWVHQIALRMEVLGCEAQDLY
UniProt P01008: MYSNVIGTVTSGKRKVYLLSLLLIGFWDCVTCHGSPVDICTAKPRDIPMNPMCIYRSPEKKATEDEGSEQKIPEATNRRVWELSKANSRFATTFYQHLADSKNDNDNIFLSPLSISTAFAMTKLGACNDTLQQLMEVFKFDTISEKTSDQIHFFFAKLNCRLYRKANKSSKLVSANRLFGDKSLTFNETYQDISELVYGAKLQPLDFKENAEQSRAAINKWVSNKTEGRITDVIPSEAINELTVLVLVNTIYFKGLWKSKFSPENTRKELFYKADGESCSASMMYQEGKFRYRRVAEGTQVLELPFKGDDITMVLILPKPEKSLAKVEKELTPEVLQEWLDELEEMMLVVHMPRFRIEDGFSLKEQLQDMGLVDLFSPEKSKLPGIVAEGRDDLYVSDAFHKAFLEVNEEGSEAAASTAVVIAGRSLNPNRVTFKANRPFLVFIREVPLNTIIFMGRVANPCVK
UniProt P00740: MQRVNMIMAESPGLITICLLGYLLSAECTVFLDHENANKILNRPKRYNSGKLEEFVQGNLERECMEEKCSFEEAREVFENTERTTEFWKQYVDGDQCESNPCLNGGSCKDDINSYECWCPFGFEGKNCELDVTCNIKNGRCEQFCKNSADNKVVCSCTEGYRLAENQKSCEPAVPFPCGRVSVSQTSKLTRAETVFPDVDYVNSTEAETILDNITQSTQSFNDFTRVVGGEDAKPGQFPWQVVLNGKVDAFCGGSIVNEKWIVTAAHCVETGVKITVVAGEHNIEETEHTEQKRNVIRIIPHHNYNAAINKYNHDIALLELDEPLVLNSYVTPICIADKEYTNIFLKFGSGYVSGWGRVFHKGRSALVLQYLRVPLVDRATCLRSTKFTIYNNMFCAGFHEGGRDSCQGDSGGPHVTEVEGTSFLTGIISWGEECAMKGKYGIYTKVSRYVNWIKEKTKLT

Experiments:
Factor VIIIa (FVIIIa) [1] = molecular target: Factor VIIIa (FVIIIa) (UniProt P00451); assay: assay not described at this place (functional cofactor binding, Example 8)
[2] = molecular target: Antithrombin III (plasma purified human AT-III, Molecular Innovations) (human) (UniProt P01008); assay: AT-III/UFH inhibition of FIXa cleavage of Mesyl-D-CHG-Gly-Arg-AMC
Factor VIIIa (FVIIIa) [3] = molecular target: Factor VIIIa (FVIIIa) (UniProt P00451); assay: functional cofactor binding (KD-app): FXa generation by the Xase complex at varied FVIIIa, Spectrafluor FXa
FIXa-R318E/R403E (human) = FIXa-R318E/R403E (human) (UniProt P00740); assay: inhibition of FIXa activity on Mesyl-D-CHG-Gly-Arg-AMC by AT-III/LMWH

binding [2]: no binding (tested: 35 nM AT-III)
Substance: FIXa-R318E/R403E (from UniProt P00740 47-191; P00740 227-461) (enzyme)

binding (Factor VIIIa (FVIIIa) [3]): binds
Substance: FIXa-R318Y/R338E (from UniProt P00740 47-191; P00740 227-461) (enzyme)

The next lines start with the substance.

Substance: FIXa-E410N (from UniProt P00740 47-191; P00740 227-461) (enzyme)
binding (Factor VIIIa (FVIIIa) [1]): binds

Substance: FIXa-R318Y/R338E/R403E/E410N (from UniProt P00740 47-191; P00740 227-461) (enzyme)
binding (Factor VIIIa (FVIIIa) [3]): binds

Substance: plasma purified human AT-III (Molecular Innovations), in complex with low molecular weight heparin (from UniProt P01008 33-464)
binding (FIXa-R318E/R403E (human)): no binding (tested: 999 nM (assigned lower limit of K0.5))
